A short description of one series: peptide synthesis. Conditions: of theory.
The nature of series [1]: general procedure: Boc solid-phase peptide synthesis; benzhydrylamine resin; symmetrical anhydride; DCC-HOBt for arginine. The conditions noted are these: whole synthesis, scale 5 mmoles.
Series [2] in a line: general procedure: Boc solid-phase peptide synthesis; p-MBHA; symmetrical anhydride; DCC-HOBt for arginine. Conditions: whole synthesis, scale 0.45 mmol.
Series [3] is described as follows: Boc solid-phase peptide synthesis; p-MBHA; symmetrical anhydride; DCC-HOBt for arginine. The conditions noted are these: whole synthesis, scale 0.45 mmol; run 1.

Strings that start with PEPTIDE1 are HELM notation: dots part the residues, brackets hold end groups and non-standard residues. * marks the point of attachment. Cbz = O=C(OCc1ccccc1)*; OBn = c1ccc(CO*)cc1

With Boc-Pro-Asp(OBzl)-Pro-Phe-NH2, the step yield in the series “peptide synthesis” (coupling step) was 95%.
Still for that read-out and setting: the value for Cbz-RPD(OBn)PF-NH2 was 80%.
In series [1], “PEPTIDE1{[Decanoyl].R.P.D.P.F.[am]}$$$$V2.0” yielded a crude mass of 1.8 g and an isolated mass of 1.19 g.
Substance PEPTIDE1{[ac].R.P.D.P.F.[am]}$$$$V2.0 gave a step yield in “peptide synthesis” (late stage modification step) of 77.9%. In series [2], this substance showed an isolated mass of 206 mg. The values for the crude mass in series [2] (run 1) and in series [3] were 0.240 g and 0.248 g, respectively.

The values are drawn from US5215964A (Immunobiology Research Institute, Inc., priority 1991, dated 1993).
